Source: patent publication CN115772220A
No constants are given. Whether binding was seen depends on the method and setting. Some results given as binding are weak or reduced against the parent protein; the word gives no strength.

The chains behind the UniProt entries cited, without tags or fusion partners. Residues count along the entry.
UniProt P01584, residues 117-269: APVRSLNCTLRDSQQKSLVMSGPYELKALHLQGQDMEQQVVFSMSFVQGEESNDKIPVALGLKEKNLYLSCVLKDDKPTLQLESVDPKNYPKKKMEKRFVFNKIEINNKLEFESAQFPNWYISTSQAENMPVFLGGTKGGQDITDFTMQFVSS

Target: 重组人白介素-1β，R&D货号:840170 (recombinant human IL-1β standard of the sandwich ELISA) (human) (UniProt P01584)
Assay: double-antibody sandwich ELISA, 10A10 capture and 1F3-biotin detection, human IL-1β at 100pg/mL

binding: binds
B1: 兔单克隆抗体10A10 (rabbit monoclonal antibody 10A10 against human IL-1β) (antibody, V domains shown)
VH: QSVEESGGRLVTPGTPLTLTCTVSGFSLSTYAMSWVRQAPGKGLEWIGIISGSGNTAYASWAKGRFTISKTSTTVDLKMTSPTTEDTATYFCARSYEDYANIWGPGTLVTVSS
VL: AQVLTQTPSSVSAAVGGTVTINCQASQSLYNNNELSWYQQKPGQPPKLLIYKASTLASGVSSRFKGSGSGTQFTLTISGVQCDDAATYYCQGDYSCRIADCYAFGGGTEVVVKG
